US20020046412A1, “Nucleic acids encoding new insect acetylcholine receptor beta subunits” (priority 1999, published 2002)
For at least one compound, name, drawing or mass did not settle the structure.

Tested on: recombinant insect acetylcholine receptors containing the new Drosophila β3 subunit (Drosophila α1, α2 and β3 subunits)
Assay: Acetylcholine-induced currents in Xenopus oocytes expressing recombinant insect acetylcholine receptors (whole-cell discharges)
Assay type: cell-based, Drosophila melanogaster
Settings: acetylcholine 10 μM; Xenopus oocytes injected with cDNA expression plasmids; membrane potential kept at −80 mV; three to five days after injection

CC(=O)OCC[N+](C)(C)C [acetylcholine]
currents through the oocyte membrane after stimulus: strong inward currents
